Reference: publication PMC8599867
No constants are given. Whether binding was seen depends on the method and setting. In cells and extracts the contact can be indirect. Some binding calls cover weakened binding; strength is not graded here. For some assays here: Tags and fused reporters may be left off the sequences shown.

By UniProt entry, the sequences of proteins in these tests, tags left out.
UniProt Q13523: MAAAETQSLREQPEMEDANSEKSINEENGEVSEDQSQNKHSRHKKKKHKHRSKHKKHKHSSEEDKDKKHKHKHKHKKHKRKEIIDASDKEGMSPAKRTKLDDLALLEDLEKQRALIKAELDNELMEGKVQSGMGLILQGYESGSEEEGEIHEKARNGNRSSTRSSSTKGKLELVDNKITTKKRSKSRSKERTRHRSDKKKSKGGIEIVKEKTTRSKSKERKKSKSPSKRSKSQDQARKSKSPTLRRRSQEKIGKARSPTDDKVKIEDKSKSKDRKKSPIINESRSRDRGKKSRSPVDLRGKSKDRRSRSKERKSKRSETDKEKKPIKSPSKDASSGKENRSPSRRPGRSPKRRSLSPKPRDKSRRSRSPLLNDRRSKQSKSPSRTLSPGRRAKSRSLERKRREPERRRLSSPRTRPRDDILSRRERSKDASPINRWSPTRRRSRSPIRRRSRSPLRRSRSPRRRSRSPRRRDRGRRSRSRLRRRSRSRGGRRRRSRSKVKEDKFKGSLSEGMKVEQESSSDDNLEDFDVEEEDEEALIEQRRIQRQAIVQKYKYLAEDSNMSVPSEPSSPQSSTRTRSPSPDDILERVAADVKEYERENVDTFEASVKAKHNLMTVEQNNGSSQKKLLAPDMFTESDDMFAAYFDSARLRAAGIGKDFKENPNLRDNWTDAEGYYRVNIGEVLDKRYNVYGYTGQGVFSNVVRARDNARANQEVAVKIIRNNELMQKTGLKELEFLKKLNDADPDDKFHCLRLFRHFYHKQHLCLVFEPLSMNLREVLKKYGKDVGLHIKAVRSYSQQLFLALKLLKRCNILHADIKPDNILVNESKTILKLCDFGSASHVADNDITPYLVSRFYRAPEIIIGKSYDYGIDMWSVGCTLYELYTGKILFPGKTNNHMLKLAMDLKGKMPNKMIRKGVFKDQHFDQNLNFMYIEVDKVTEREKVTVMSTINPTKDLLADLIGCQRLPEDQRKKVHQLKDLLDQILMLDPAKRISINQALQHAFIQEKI
UniProt P38432: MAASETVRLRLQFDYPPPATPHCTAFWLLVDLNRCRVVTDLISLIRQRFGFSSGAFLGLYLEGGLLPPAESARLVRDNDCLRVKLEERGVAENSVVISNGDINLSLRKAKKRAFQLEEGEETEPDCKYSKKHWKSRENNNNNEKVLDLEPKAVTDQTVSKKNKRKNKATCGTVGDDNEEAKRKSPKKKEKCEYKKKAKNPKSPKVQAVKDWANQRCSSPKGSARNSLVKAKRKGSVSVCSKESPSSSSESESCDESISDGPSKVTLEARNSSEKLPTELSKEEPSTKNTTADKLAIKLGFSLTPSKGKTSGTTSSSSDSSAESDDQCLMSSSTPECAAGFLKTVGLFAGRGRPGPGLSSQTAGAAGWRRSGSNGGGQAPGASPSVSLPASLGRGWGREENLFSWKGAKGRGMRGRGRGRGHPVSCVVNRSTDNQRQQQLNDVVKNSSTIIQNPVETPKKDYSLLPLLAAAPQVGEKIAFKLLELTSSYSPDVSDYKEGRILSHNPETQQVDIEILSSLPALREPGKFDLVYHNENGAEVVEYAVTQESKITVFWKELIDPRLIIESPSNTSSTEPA
UniProt O75643: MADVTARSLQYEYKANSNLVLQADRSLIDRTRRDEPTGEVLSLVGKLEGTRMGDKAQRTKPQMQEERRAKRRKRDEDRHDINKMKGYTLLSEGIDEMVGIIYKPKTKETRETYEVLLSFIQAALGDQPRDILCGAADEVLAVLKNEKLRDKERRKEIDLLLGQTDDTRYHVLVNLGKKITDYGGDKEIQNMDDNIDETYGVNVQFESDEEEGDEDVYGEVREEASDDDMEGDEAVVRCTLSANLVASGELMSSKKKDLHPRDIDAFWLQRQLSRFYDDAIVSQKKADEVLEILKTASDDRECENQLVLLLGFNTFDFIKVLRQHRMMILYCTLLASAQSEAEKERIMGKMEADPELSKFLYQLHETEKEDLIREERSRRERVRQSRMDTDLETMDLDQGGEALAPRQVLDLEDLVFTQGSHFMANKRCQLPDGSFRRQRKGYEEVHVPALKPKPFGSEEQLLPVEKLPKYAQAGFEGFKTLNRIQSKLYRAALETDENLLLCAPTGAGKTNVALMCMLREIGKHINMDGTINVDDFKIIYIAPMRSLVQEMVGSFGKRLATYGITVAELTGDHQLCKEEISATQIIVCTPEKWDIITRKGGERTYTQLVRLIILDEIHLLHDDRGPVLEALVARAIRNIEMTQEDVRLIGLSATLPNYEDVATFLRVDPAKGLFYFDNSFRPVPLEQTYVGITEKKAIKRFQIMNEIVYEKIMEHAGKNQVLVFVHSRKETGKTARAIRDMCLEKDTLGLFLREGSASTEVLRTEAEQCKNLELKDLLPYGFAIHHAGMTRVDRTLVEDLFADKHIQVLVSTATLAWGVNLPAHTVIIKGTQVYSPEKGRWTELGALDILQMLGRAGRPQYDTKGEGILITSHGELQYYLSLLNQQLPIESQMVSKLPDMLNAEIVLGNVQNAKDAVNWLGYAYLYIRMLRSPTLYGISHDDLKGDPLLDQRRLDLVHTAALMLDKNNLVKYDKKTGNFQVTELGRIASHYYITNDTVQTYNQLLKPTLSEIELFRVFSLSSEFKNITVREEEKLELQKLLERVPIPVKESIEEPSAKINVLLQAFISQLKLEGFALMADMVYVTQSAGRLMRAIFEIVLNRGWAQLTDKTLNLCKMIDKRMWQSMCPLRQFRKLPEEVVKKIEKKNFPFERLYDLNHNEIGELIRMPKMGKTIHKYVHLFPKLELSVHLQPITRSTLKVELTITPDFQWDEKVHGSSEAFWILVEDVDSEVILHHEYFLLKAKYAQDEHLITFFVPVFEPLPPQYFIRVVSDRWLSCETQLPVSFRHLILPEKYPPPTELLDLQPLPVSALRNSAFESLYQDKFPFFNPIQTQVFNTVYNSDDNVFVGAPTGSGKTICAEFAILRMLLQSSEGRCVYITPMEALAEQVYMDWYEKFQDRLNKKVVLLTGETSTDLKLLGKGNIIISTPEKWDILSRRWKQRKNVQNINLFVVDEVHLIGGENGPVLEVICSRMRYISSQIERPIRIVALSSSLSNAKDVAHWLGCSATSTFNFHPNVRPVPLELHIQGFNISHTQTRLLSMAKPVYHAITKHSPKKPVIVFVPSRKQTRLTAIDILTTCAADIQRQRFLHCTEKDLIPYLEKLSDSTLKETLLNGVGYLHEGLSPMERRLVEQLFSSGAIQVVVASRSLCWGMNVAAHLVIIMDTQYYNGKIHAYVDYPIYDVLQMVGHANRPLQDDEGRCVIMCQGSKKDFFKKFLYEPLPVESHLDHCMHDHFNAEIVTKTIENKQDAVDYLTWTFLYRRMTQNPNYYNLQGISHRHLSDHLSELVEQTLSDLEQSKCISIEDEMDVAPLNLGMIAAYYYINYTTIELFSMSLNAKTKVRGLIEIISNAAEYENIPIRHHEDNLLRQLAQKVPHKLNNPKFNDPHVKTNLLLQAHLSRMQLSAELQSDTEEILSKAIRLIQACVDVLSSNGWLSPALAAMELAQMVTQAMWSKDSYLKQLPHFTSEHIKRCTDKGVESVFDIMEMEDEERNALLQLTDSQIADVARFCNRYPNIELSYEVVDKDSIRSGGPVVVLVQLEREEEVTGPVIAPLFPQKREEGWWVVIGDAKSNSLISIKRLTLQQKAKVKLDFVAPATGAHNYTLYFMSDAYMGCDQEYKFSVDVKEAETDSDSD

Key:
[1] = biological target: T1, TFIP11 (human (endogenous in HeLa)) (UniProt Q9UBB9); experiment: co-IP; IP of endogenous TFIP11 from HeLa cell extracts in a high-salt concentration buffer (500 mM NaCl), western blotting for snRNP-specific proteins
T1 sequence: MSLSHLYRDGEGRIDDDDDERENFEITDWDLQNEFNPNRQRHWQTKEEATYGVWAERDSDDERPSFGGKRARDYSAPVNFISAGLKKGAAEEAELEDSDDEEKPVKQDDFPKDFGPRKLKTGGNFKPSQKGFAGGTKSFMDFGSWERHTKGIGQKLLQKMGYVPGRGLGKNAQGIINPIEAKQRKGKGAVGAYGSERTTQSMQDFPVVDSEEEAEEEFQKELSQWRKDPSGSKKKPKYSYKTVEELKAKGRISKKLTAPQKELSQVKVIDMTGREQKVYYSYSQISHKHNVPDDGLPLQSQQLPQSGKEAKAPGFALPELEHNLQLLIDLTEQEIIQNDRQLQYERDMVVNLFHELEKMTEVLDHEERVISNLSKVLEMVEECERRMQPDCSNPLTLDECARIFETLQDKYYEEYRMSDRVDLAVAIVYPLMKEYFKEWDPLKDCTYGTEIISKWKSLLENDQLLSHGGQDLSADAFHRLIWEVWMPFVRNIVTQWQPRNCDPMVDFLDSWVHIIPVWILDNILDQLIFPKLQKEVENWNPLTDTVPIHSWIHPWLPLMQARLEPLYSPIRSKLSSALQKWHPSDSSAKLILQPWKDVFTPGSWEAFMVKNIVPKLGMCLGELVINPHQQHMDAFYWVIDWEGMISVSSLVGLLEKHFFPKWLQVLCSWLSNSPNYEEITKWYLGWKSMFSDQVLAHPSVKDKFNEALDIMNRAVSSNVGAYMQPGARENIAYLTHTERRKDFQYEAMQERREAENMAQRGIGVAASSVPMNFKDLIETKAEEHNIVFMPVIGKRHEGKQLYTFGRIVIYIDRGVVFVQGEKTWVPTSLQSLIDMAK

TFIP11-FLAG (human) = biological target: T2, TFIP11-FLAG (human) (UniProt Q9UBB9); experiment: co-IP; HeLa cells co-transfected with RFP-coilin and TFIP11-FLAG constructs; IP with anti-FLAG antibodies, western blotting
T2 sequence: T1 sequence

[2] = biological target: T3, fibrillarin (human (endogenous in HeLa)) (UniProt P22087); experiment: co-IP; endogenous proteins from HeLa cells lysed in RIPA buffer, sonicated, diluted with 50 mM Tris-HCl pH 7.5, 150 mM NaCl; antibodies on agarose beads, 4 C overnight; IgG of the corresponding species as negative control; western blotting
T3 sequence: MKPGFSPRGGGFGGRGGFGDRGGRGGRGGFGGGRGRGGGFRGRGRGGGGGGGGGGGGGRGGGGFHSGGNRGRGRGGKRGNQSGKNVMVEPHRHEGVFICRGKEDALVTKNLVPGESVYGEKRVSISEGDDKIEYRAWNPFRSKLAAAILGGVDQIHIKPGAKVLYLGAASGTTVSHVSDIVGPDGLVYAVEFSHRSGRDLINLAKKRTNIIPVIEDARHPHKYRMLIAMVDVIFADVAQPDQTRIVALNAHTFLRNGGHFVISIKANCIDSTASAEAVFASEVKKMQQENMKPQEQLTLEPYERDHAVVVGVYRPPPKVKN

Question: How did the binding [1] turn out when “Prp4K (from UniProt Q13523 1-1007) (enzyme)” was run?
Answer: binds

Question: For RFP-coilin (from UniProt P38432 1-576), which binding (TFIP11-FLAG (human)) is on record?
Answer: binds

Question: Which binding [1] does the source give for “SNRNP200 (from UniProt O75643 1-2136) (enzyme)” here?
Answer: binds

B1: SART3 (protein, UniProt Q15020 1-963)
chain: MATAAETSASEPEAESKAGPKADGEEDEVKAARTRRKVLSRAVAAATYKTMGPAWDQQEEGVSESDGDEYAMASSAESSPGEYEWEYDEEEEKNQLEIERLEEQLSINVYDYNCHVDLIRLLRLEGELTKVRMARQKMSEIFPLTEELWLEWLHDEISMAQDGLDREHVYDLFEKAVKDYICPNIWLEYGQYSVGGIGQKGGLEKVRSVFERALSSVGLHMTKGLALWEAYREFESAIVEAARLEKVHSLFRRQLAIPLYDMEATFAEYEEWSEDPIPESVIQNYNKALQQLEKYKPYEEALLQAEAPRLAEYQAYIDFEMKIGDPARIQLIFERALVENCLVPDLWIRYSQYLDRQLKVKDLVLSVHNRAIRNCPWTVALWSRYLLAMERHGVDHQVISVTFEKALNAGFIQATDYVEIWQAYLDYLRRRVDFKQDSSKELEELRAAFTRALEYLKQEVEERFNESGDPSCVIMQNWARIEARLCNNMQKARELWDSIMTRGNAKYANMWLEYYNLERAHGDTQHCRKALHRAVQCTSDYPEHVCEVLLTMERTEGSLEDWDIAVQKTETRLARVNEQRMKAAEKEAALVQQEEEKAEQRKRARAEKKALKKKKKIRGPEKRGADEDDEKEWGDDEEEQPSKRRRVENSIPAAGETQNVEVAAGPAGKCAAVDVEPPSKQKEKAASLKRDMPKVLHDSSKDSITVFVSNLPYSMQEPDTKLRPLFEACGEVVQIRPIFSNRGDFRGYCYVEFKEEKSALQALEMDRKSVEGRPMFVSPCVDKSKNPDFKVFRYSTSLEKHKLFISGLPFSCTKEELEEICKAHGTVKDLRLVTNRAGKPKGLAYVEYENESQASQAVMKMDGMTIKENIIKVAISNPPQRKVPEKPETRKAPGGPMLLPQTYGARGKGRTQLSLLPRALQRPSAAAPQAENGPAAAPAVAAPAATEAPKMSNADFAKLFLRK
Question: B1 was tested. Which binding [1] did it give?
Answer: binds

B2: TFIP11 (protein, UniProt Q9UBB9 1-837)
chain: T1 sequence
Question: With B2 as the molecule, how does the binding [2] read?
Answer: no binding
